PubChem BioAssay AID1259254 | NCATS, 2017

Aim: 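Genome-wide screen for genes that prevent DNA re-replication in cancer cells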 (primary screen)
Cells: human HCT116 colorectal cancer cells
Reagent: single siRNA against human genes
Timing: 3 days
Measured: 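Imaged Hoechst DNA stain sorts each cell into a cycle phase by DNA amount; per plate, G2 fraction set to 0% for non-targeting and 100% for GMNN siRNA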
Direction: G2 robust z-score: higher = more G2 cells, more excess DNA replication
Active means: 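Active siRNAs have a G2 robust z of 5 or more median absolute deviations over the median, which in these data means about 38% or higher of GMNN control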
The deposit covers about 59,000 reagents; shown is a random part of them. About 1,550 of them (2.6%) were called active. 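G2 share is only a proxy for re-replication; each gene was hit by three separate siRNAs, and active genes were retested.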 Reagents against one gene are numbered here. Not all columns of the deposit are shown. Reagent sequences are not shown. Not given: the amount of reagent.

ACAP2 #1 → G2 robust z-score: -0.5; outcome: inactive
ACAP2 #2 → G2 robust z-score: -0.32; outcome: inactive
ACAP2 #3 → G2 robust z-score: -0.445; outcome: inactive
TPO #1 → G2 robust z-score: -0.823; outcome: inactive
TPO #2 → G2 robust z-score: -0.537; outcome: inactive
TPO #3 → G2 robust z-score: 0.43; outcome: inactive
BOK #1 → G2 robust z-score: 7.36; outcome: active
BOK #2 → G2 robust z-score: 1.46; outcome: inactive
BOK #3 → G2 robust z-score: -0.499; outcome: inactive
RS1 #1 → G2 robust z-score: -0.0876; outcome: inactive
RS1 #2 → G2 robust z-score: -1.16; outcome: inactive
RS1 #3 → G2 robust z-score: 0.975; outcome: inactive
APAF1 #1 → G2 robust z-score: 0.151; outcome: inactive
APAF1 #2 → G2 robust z-score: -1.29; outcome: inactive
APAF1 #3 → G2 robust z-score: -0.721; outcome: inactive
C2orf69 #1 → G2 robust z-score: 0.576; outcome: inactive
C2orf69 #2 → G2 robust z-score: 0.31; outcome: inactive
C2orf69 #3 → G2 robust z-score: 0.249; outcome: inactive

Active calls, among the entries above:
BOK #1 → G2 robust z-score: 7.36; outcome: active
